Laboratory results reported in publication PMC6966542.
Results are given in words; binding and its absence hold for the method and conditions named. In cells and extracts the contact can be indirect. Some results given as binding are weak or reduced against the parent protein; the word gives no strength.

Target: Myc-6His tagged wild type (WT) calreticulin (CALR) (human) (UniProt P27797)
Assay: co-IP; HEK293T cotransfected with Myc-6His tagged WT, del52 or ins5 CALR and FLAG-tagged EDEM3 or HA-tagged EDEM1; lysis in 20 mM Tris-HCl pH 7.5, 150 mM NaCl, 1.5% CHAPS, protease inhibitors; anti-Myc antibody overnight, protein G magnetic beads; western blot for EDEM3 or calnexin

B1: Calnexin (CANX) (protein, UniProt P27824 21-592)
chain: HDGHDDDVIDIEDDLDDVIEEVEDSKPDTTAPPSSPKVTYKAPVPTGEVYFADSFDRGTLSGWILSKAKKDDTDDEIAKYDGKWEVEEMKESKLPGDKGLVLMSRAKHHAISAKLNKPFLFDTKPLIVQYEVNFQNGIECGGAYVKLLSKTPELNLDQFHDKTPYTIMFGPDKCGEDYKLHFIFRHKNPKTGIYEEKHAKRPDADLKTYFTDKKTHLYTLILNPDNSFEILVDQSVVNSGNLLNDMTPPVNPSREIEDPEDRKPEDWDERPKIPDPEAVKPDDWDEDAPAKIPDEEATKPEGWLDDEPEYVPDPDAEKPEDWDEDMDGEWEAPQIANPRCESAPGCGVWQRPVIDNPNYKGKWKPPMIDNPSYQGIWKPRKIPNPDFFEDLEPFRMTPFSAIGLELWSMTSDIFFDNFIICADRRIVDDWANDGWGLKKAADGAAEPGVVGQMIEAAEERPWLWVVYILTVALPVFLVILFCCSGKKQTSGMEYKKTDAPQPDVKEEEEEKEEEKDKGDEEEEGEEKLEEKQKSDAEEDGGTVSQEEEDRKPKAEEDEILNRSPRNRKPRRE
For B1, the binding was “binds”.
